Data as given in paper PMC5802629.
No constants are given. Whether binding was seen depends on the method and setting. In cells and extracts the contact can be indirect. Some results given as binding are weak or reduced against the parent protein; the word gives no strength.

By UniProt entry, the sequences of proteins in these tests, tags left out.
UniProt P21554: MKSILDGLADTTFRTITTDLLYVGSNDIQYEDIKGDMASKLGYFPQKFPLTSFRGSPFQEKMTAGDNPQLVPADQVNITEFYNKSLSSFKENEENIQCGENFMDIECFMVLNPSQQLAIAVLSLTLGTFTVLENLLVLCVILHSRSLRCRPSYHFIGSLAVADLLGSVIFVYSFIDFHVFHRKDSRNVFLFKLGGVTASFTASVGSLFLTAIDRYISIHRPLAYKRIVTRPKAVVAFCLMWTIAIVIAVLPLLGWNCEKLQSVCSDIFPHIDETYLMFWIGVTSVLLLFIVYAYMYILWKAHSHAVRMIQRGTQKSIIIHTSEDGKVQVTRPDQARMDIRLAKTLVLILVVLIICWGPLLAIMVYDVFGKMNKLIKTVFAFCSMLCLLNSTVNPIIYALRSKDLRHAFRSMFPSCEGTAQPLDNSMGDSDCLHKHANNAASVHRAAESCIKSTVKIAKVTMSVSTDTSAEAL
UniProt P35372: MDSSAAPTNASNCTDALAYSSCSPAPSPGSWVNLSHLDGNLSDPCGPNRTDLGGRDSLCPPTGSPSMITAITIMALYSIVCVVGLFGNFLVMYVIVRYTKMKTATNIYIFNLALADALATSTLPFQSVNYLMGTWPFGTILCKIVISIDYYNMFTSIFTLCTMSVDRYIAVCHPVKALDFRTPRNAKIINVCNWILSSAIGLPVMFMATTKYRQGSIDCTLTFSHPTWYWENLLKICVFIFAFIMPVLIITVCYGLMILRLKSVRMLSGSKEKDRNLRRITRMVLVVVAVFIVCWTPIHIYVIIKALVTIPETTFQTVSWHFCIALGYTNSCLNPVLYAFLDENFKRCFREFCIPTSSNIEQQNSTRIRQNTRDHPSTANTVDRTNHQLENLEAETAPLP
UniProt P49773: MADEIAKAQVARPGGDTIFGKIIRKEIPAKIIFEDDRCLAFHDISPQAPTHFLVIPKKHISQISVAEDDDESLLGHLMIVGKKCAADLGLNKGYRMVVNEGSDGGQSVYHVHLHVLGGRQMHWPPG

Assays:
[1] = biological target: cannabinoid type 1 receptor (human (endogenous in postmortem prefrontal cortex)) (UniProt P21554); assay: co-IP; solubilized synaptosomal membranes of postmortem human prefrontal cortex (schizophrenic, depressive and control subjects); the GPCR immunoprecipitated with biotinylated IgG to an extracellular sequence, captured by agarose streptavidin; co-precipitated HINT1 and NR1 C1 by western blot
[2] = biological target: mu-opioid receptor (human (endogenous in postmortem prefrontal cortex)) (UniProt P35372); assay: as above

binding [1]: binds
binding [2]: binds
Substance: histidine triad nucleotide-binding protein 1 (from UniProt P49773 1-126)
